Experimental data: patent publication US20240255509A1, “COMPOSITIONS AND METHODS RELATED TO K180 DIMETHYLATED H1.0 PROTEIN” (Aelan Cell Technologies, Inc., priority 2016, published 2024)
For at least one compound, name, drawing or mass did not settle the structure.

How the values were obtained:
[1] = tested on: H1.0K180me2; test: Western blot for H1.0K180me2 in SR hADSCs treated with bleomycin after rapamycin or everolimus pretreatment; type: cell-based, human; conditions: 500 nM, 24 hours pretreatment, then bleomycin 2 hours
From the text: Material for western blot analysis (cultured cells or tissue) was lysed in ice-cold RIPA lysis buffer (Thermo Scientific 89900) and sonicated using a Covaris S2 sonicator (10% duty cycle, Intensity 5, Bursts per minute 100, 120 seconds). Total protein concentration in each sample was quantified using Quick Start Bradford 1× Dye Reagent (BioRad, 5000205) following manufacturer's protocol. Samples were then mixed with NUPAGE LDS sample loading buffer (ThermoFisher, NP0007) and NUPAGE sample reducing buffer (ThermoFisher, NP0004), and heat denatured at 70° C. for 10 minutes. Proteins were separated on 4-12% precast polyacrylamide gels (ThermoFisher, NP0321) by electrophoresis and transferred to 0.45 μm nitrocellulose membrane. […] Proteins were detected with HRP secondary antibodies listed above for 1 hour at RT followed by ECL Western Blotting Substrate (ThermoFisher, 32106) using manufacturer's instructions. […]
To test if rapamycin derivatives may block H1.0K180me2 appearance upon DNA damage, SR hADSCs were treated with bleomycin for 2 hours with or without pretreatment with rapamycin or everolimus (a derivative of rapamycin) for 24 hours. Cells were then lysed and analyzed be western blot for H1.0K180me2, γH2A.X and β-Actin, according to methods described in Example 1.

[2] = tested on: H1.0K180me2; test: Western blot for H1.0K180me2 in SR hADSCs after bleomycin or temozolomide; type: cell-based, human; conditions: SR hADSCs treated for 2 hours, 50 μg/ml
From the text: Material for western blot analysis (cultured cells or tissue) was lysed in ice-cold RIPA lysis buffer (Thermo Scientific 89900) and sonicated using a Covaris S2 sonicator (10% duty cycle, Intensity 5, Bursts per minute 100, 120 seconds). Total protein concentration in each sample was quantified using Quick Start Bradford 1× Dye Reagent (BioRad, 5000205) following manufacturer's protocol. Samples were then mixed with NUPAGE LDS sample loading buffer (ThermoFisher, NP0007) and NUPAGE sample reducing buffer (ThermoFisher, NP0004), and heat denatured at 70° C. for 10 minutes. Proteins were separated on 4-12% precast polyacrylamide gels (ThermoFisher, NP0321) by electrophoresis and transferred to 0.45 μm nitrocellulose membrane. The membrane was blocked with 5% non-fat milk in PBS-T for 30 minutes at RT then immunoblotted with the above primary antibodies at 4° C. overnight. Proteins were detected with HRP secondary antibodies listed above for 1 hour at RT followed by ECL Western Blotting Substrate (ThermoFisher, 32106) using manufacturer's instructions. All washes between steps were with PBS-T. Membranes were imaged with Omega LUM-C imaging system (Gel Company). […]
SR hADSCs were treated for 2 hours with bleomycin or temozolomide, a compound that triggers base excision repair pathways. Cells were then lysed and analyzed be western blot for H1.0K180me2, γH2A.X and β-Actin.

Compound | appearance of H1.0K180me2 upon bleomycin treatment [1] | induction of H1.0K180me2 methylation [2]
CO[C@H]1C[C@@H]2CC[C@@H](C)[C@@](O)(O2)C(=O)C(=O)N2CCCC[C@H]2C(=O)O[C@H]([C@H](C)C[C@@H]2CC[C@@H](O)[C@H](OC)C2)CC(=O)[C@H](C)/C=C(\C)[C@@H](O)[C@@H](OC)C(=O)[C@H](C)C[C@H](C)/C=C/C=C/C=C/1C [rapamycin, Rapamycin] | reduced the appearance of H1.0K180me2 | 
Cn1nnc2c(C(N)=O)ncn2c1=O [temozolomide, Temozolomide] |  | capable of inducing H1.0K180me2 methylation
